Results published in PubChem BioAssay AID651640 (Broad Institute, 2012).
About 6,000 (1.7%) of roughly 350,000 compounds were called active. Inconclusive results, whose numbers are uncertain, are shown with a selection of clear calls. Cut-off read from the data, not from the text of the source: active = CPE inhibition above about 20% (passing the limit was not always enough); inconclusive = no clear call, values can overlap the other calls; tested in BHK-21 cells.

Test: protection of cells from dengue 2 killing – plate reader, single concentration, primary screen (AID 651640);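 note: 0% = median of neutral control wells and 100% = median of positive control wells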
Conditions: DENV2-infected cells, cytopathic effect rescue, at 9.99 µM, hits give high values
For `O=C(Nc1ccc(Oc2cccc(C(F)(F)F)c2)nc1)c1ccccc1`, the CPE inhibition was inactive: 1.78%. For `O=C(c1cccs1)N1C[C@@H](n2cc(C3CC3)nn2)[C@H](O)C[C@@H]1c1ccc(Cl)cc1`, the CPE inhibition was inconclusive: 55.9%. In the case of `CCOc1cc(NC(=O)c2ccccn2)c(OCC)cc1NC(=O)c1ccccc1`, the CPE inhibition is reported as inactive: -3.23%. For `CCN(CC(=O)Nc1ccc(OC)cc1)C(=O)CN1C(=O)NC(C)(c2ccc3ccccc3c2)C1=O` (centres undefined), the CPE inhibition was inconclusive: 36.7%. For `COc1ccc(S(=O)(=O)Nc2ccc3c(c2)C(=O)N([C@H](C)CO)C[C@H](C)[C@@H](CN(C)C)O3)cc1`, the CPE inhibition was active: 69.5%. In the case of `COc1ccc(NC(=O)N(C)C[C@H]2Oc3ccc(NS(=O)(=O)c4ccc(F)cc4)cc3CC(=O)N([C@@H](C)CO)C[C@H]2C)cc1`, the CPE inhibition is reported as inactive: -3.56%. In the case of `C[C@H](CO)N1C[C@H](C)[C@H](CN(C)CC2CCCCC2)Oc2ccc(NC(=O)CCN3CCOCC3)cc2C1=O`, the CPE inhibition is reported as inactive: 3.85%. With `COc1ccc2c3c(n(C)c2c1)[C@@H](CO)N(C(=O)c1ccc(F)cc1)CC31CN(C)C1` the CPE inhibition was inactive: 7.55%. For `CN(C)CC#Cc1ccc([C@@H]2[C@H](CO)N3CCCCN(C(=O)c4ccc5c(c4)OCO5)C[C@@H]23)cc1`, the CPE inhibition was inconclusive: 24.8%. In the case of `CC(=O)NC[C@@H]1[C@@H](c2ccc(C3=CCCCC3)cc2)[C@@H](CO)N1C(=O)C1CCC1`, the CPE inhibition is reported as inactive: -14.6%. With `O=C(c1ccncc1)N1CC2(C1)[C@H](c1ccccc1)[C@@H](CO)N2CC1CCOCC1` the CPE inhibition was active: 73.4%. In the case of `O=C(COC(=O)CNC(=O)c1ccc(Cl)cc1)Nc1ncc(C(F)(F)F)cc1Cl`, the CPE inhibition is reported as active: 76.2%. In the case of `O=C(O)C1=C[C@@H](c2ccc(F)cc2)C[C@@H](OCCCCO)O1`, the CPE inhibition is reported as inconclusive: 39.9%. In the case of `CC(=O)c1cc(-c2ccc(F)cc2)n(CCC(=O)NC(C)(C)C)c1C`, the CPE inhibition is reported as inactive: 7.64%. In the case of `CNC[C@H]1OCCCC[C@@H](C)Oc2ccc(NC(=O)Nc3c(C)noc3C)cc2C(=O)N([C@@H](C)CO)C[C@H]1C`, the CPE inhibition is reported as inconclusive: 38.4%. With `C[C@@H]1CN([C@@H](C)CO)C(=O)c2cccc(NC(=O)c3ccncc3)c2O[C@@H]1CN(C)CC1CCCCC1` the CPE inhibition was inconclusive: 40.4%. In the case of `COc1ccc2c(c1)C(=O)C1(CC2)OC1c1cccnc1` (centres undefined), the CPE inhibition is reported as inconclusive: 32.5%. In the case of `C[C@@H]1CN([C@@H](C)CO)C(=O)c2cc(NC(=O)Cc3ccccc3)ccc2O[C@@H](C)CCCCO[C@@H]1CN(C)S(=O)(=O)c1cccs1`, the CPE inhibition is reported as inactive: 1.62%. In the case of `O=C(c1ccccc1)N1CCN(S(=O)(=O)c2ccc(Cl)c(C(F)(F)F)c2)CC1`, the CPE inhibition is reported as inconclusive: 21.9%. With `O=C(C[C@@H]1CC[C@@H](NC(=O)Nc2ccccc2)[C@H](CO)O1)NCc1ccccn1` the CPE inhibition was inactive: 19.2%. For `O=C(NC(=S)Nc1ccc(Br)c(Cl)c1)C1CC1`, the CPE inhibition was inactive: 1.57%. With `C[C@@H]1CN([C@H](C)CO)C(=O)Cc2cc(NC(=O)CCN3CCOCC3)ccc2O[C@H]1CN(C)C(=O)Nc1ccc2c(c1)OCO2` the CPE inhibition was inactive: -1.5%. With `Cc1ccc(C(=O)N2CCCC(N3CCN(c4ccccc4F)CC3)C2)s1` (centres undefined) the CPE inhibition was inconclusive: 27.6%. For `CCC(C(=O)O)n1c2ccccc2c2cn[nH]c(=O)c21` (centres undefined), the CPE inhibition was inconclusive: 26.3%. For `C[C@H](CO)N1C[C@H](C)[C@@H](CN(C)C(=O)Nc2ccc3c(c2)OCO3)Oc2c(NC(=O)c3nc4ccccc4s3)cccc2C1=O`, the CPE inhibition was inconclusive: 48.2%. In the case of `C[C@@H]1CN([C@H](C)CO)C(=O)c2cc(NS(=O)(=O)c3cn(C)cn3)ccc2O[C@@H](C)CCCCO[C@@H]1CN(C)Cc1ccncc1`, the CPE inhibition is reported as inactive: -3.26%. In the case of `C[C@@H]1CN([C@@H](C)CO)S(=O)(=O)c2ccc(/C=C/c3ccccc3)cc2O[C@@H]1CN(C)Cc1ccc(C(=O)O)cc1`, the CPE inhibition is reported as inconclusive: 23.9%. In the case of `CCOc1ccc(NC(=O)C2CCCN2C(=O)OCc2ccccc2)cc1` (centres undefined), the CPE inhibition is reported as inconclusive: 25.8%. For `C[C@H](CO)N1C[C@H](C)[C@H](CN(C)S(=O)(=O)c2ccc(Cl)cc2)Oc2ccc(NC(=O)NC3CCCCC3)cc2CC1=O`, the CPE inhibition was inactive: 3.54%. With `COc1ccc(-c2cnc3c(c2)C(=O)N([C@H](C)CO)C[C@@H](C)[C@@H](CN(C)Cc2ccc(C(=O)O)cc2)O3)cc1` the CPE inhibition was inconclusive: 20.1%. In the case of `COc1ccc(S(=O)(=O)N2CCN(CC(=O)NC3CC3)CC2)cc1`, the CPE inhibition is reported as active: 23.3%. With `O=C(C[C@H]1C[C@@H]2c3cc(NS(=O)(=O)c4ccc(F)cc4)ccc3O[C@@H]2[C@H](CO)O1)NC1CCCCC1` the CPE inhibition was inactive: -3.8%. In the case of `C[C@@H]1CCCCO[C@@H](CN(C)S(=O)(=O)c2ccc(Cl)cc2)[C@H](C)CN([C@H](C)CO)C(=O)c2cc(NC(=O)Nc3ccc(F)cc3)ccc2O1`, the CPE inhibition is reported as inactive: 14.4%. In the case of `COc1cc(CCCN2CCNC[C@H]2Cc2ccc(O)cc2)cc(OC)c1OC`, the CPE inhibition is reported as inactive: 2.54%. For `O=C(C[C@H]1C=C[C@@H](NC(=O)c2ccc3c(c2)OCO3)[C@@H](CO)O1)NC1Cc2ccccc2C1`, the CPE inhibition was inactive: -3%. For `CCOC(=O)C1(C)CCCCCN1C(=O)c1ccccc1F` (centres undefined), the CPE inhibition was inconclusive: 23.9%. For `Cc1ccc2nc(NC(=O)CSCC(=O)Nc3cc(C)on3)sc2c1`, the CPE inhibition was inconclusive: 62.8%. In the case of `O=C(O)CSc1ncccc1C(=O)O`, the CPE inhibition is reported as active: 45.6%. With `C[C@@H]1CN([C@@H](C)CO)C(=O)Cc2cc(NS(=O)(=O)c3ccccc3)ccc2O[C@H]1CN(C)Cc1ccc(C(F)(F)F)cc1` the CPE inhibition was inactive: 3.18%. For `C[C@@H]1CN([C@@H](C)CO)C(=O)Cc2cc(NS(=O)(=O)c3cccs3)ccc2O[C@H]1CN(C)C(=O)Nc1ccc(C(F)(F)F)cc1`, the CPE inhibition was inactive: 8.4%. With `OC(c1ccccc1)C(NCc1ccccc1)c1ccccc1` (centres undefined) the CPE inhibition was active: 20.5%. In the case of `CCOC(=O)CN(C)S(=O)(=O)c1ccc(-c2cc(C(=O)OC)sc2C(F)(F)F)cc1`, the CPE inhibition is reported as inconclusive: 34.5%. In the case of `C[C@@H]1CN([C@@H](C)CO)C(=O)CCCn2cc(nn2)CO[C@H]1CN(C)C(=O)Oc1ccccc1`, the CPE inhibition is reported as inconclusive: 45.2%. With `COc1cccc(NC(=O)c2ccc3nc(C)sc3c2)c1` the CPE inhibition was inconclusive: 34.8%.
